Results as given in paper PMC6199744, “Development of Chemical Proteomics for the Folateome and Analysis of the Kinetoplastid Folateome” (ACS Infectious Diseases, 2018).
This continues a long series; more values of the same kind are listed elsewhere.

Tested on: L. major lysate proteins
Experiment: Multitargeted bead mixture chemoproteomics, single concentration competition, proteome-wide
Assay type: binding

Nc1nc2[nH]cc(CCc3ccc(C(=O)N[C@@H](CCC(=O)O)C(=O)O)cc3)c2c(=O)[nH]1 [PTX, pemetrexed]
fold change vs vehicle control (protein LMJF.32.0520 PROFILIN, PUTATIVE): 0.94
fold change (protein LMJF.32.1000 […]-COMPLEX PROTEIN, PUTATIVE, vehicle control = 1): 0.99
fold change (protein LMJF.32.3010 HY[…], CONSERVED,LEUCINE-RICH REPEAT PROTEIN, PUTATIVE, vehicle control = 1): 0.85
fold change (protein LMJF.32.3270 […] SUBUNIT, PUTATIVE, vehicle control = 1): 1.01
fold change (protein LMJF.32.3310 DIHYDROLIPOAMIDE DEHYDROGENASE, PUTATIVE, vehicle control = 1): 1.03
fold change (protein LMJF.33.1930 PHOSPHORIBOSYLPYR[…], PUTATIVE, vehicle control = 1): 1.04
fold change (protein LMJF.33.2060 HY[…], CONSERVED, vehicle control = 1): 0.97
fold change (protein LMJF.33.2300 UDP-GLC 4'-EPIMERASE, PUTATIVE, vehicle control = 1): 1.03
fold change (protein LMJF.33.2390 HEAT SHOCK PROTEIN, PUTATIVE, vehicle control = 1): 0.98
fold change (protein LMJF.33.2410 HY[…], CONSERVED, vehicle control = 1): 0.85
fold change (protein LMJF.34.0840 T[…] 1-BETA, PUTATIVE, vehicle control = 1): 1.03
fold change (protein LMJF.34.0930 HY[…], CONSERVED, vehicle control = 1): 0.95
fold change (protein LMJF.34.2340 ASPARAGINYL-TRNA SYNTHETASE, PUTATIVE, vehicle control = 1): 0.9
fold change (protein LMJF.34.2610 ATP-DEPENDENT DNA HELICASE, PUTATIVE,RUVB DNA HELICASE-LIKE PROTEIN, PUTATIVE, vehicle control = 1): 1.07
fold change (protein LMJF.34.2820 REGULATORY SUBUNIT OF PROTEIN KINASE A-LIKE PROTEIN, vehicle control = 1): 0.87
fold change (protein LMJF.34.3500 RUVB-LIKE 1 DNA HELICASE, PUTATIVE, vehicle control = 1): 0.92
fold change (protein LMJF.34.3670 VACUOLAR ATP SYNTHASE CATALYTIC SUBUNIT A, PUTATIVE, vehicle control = 1): 0.98
fold change (protein LMJF.34.4120 HY[…], CONSERVED, vehicle control = 1): 0.86
fold change (protein LMJF.35.0030 PYRUVATE KINASE, vehicle control = 1): 1.02
fold change (protein LMJF.35.0240 60S RIBOSOMAL PROTEIN L30, vehicle control = 1): 1.15
fold change (protein LMJF.35.0760 CBS DOMAIN PROTEIN, CONSERVED, vehicle control = 1): 0.77
fold change (protein LMJF.35.0820 ASPARTATE AMINOTRANSFERASE, PUTATIVE, vehicle control = 1): 0.94
fold change vs vehicle control (protein LMJF.35.1410 THREONYL-TRNA SYNTHETASE, PUTATIVE): 1.01
fold change (protein LMJF.35.1720 CYCLOPHILIN 14, PUTATIVE, vehicle control = 1): 0.79
fold change (protein LMJF.35.2730 ACYL-COA DEHYDROGENASE, PUTATIVE, vehicle control = 1): 1
fold change (protein LMJF.35.3080 GLYCEROL KINASE, GLYCOSOMAL, PUTATIVE, vehicle control = 1): 0.94
fold change (protein LMJF.35.3100 ATP-DEPENDENT RNA HELICASE, PUTATIVE, vehicle control = 1): 0.99
fold change (protein LMJF.35.3230 C[…] LYASE, PUTATIVE, vehicle control = 1): 0.92
fold change (protein LMJF.35.3790 60S RIBOSOMAL PROTEIN L23, PUTATIVE, vehicle control = 1): 1.14
fold change (protein LMJF.35.4130 POLY(A)-BINDING PROTEIN 2, vehicle control = 1): 1.02
fold change (protein LMJF.35.4850 […] 1 SUBUNIT, PUTATIVE, vehicle control = 1): 0.86
fold change (protein LMJF.36.0180 […] 2, vehicle control = 1): 1.02
fold change (protein LMJF.36.0210 SET DOMAIN PROTEIN, PUTATIVE, vehicle control = 1): 1.09
fold change (protein LMJF.36.0740 HY[…], CONSERVED, vehicle control = 1): 1.12
fold change vs vehicle control (protein LMJF.36.0900 PROTEIN KINASE, PUTATIVE,SNF1-RELATED PROTEIN KINASES, PUTATIVE): 0.89
fold change (protein LMJF.36.1430 T[…] 1-BETA, PUTATIVE, vehicle control = 1): 0.98
fold change (protein LMJF.36.1940 INOSINE-GUANOSINE TRANSPORTER, vehicle control = 1): 0.99
fold change (protein LMJF.36.2020 CHAPERONIN HSP60, MIT[…], vehicle control = 1): 1.05
fold change vs vehicle control (protein LMJF.36.3530 POLYUBIQUITIN, PUTATIVE): 1.02
fold change (protein LMJF.36.4360 […] SUBUNIT, vehicle control = 1): 1.05
fold change (protein LMJF.36.4420 60S RIBOSOMAL PROTEIN L22, PUTATIVE, vehicle control = 1): 0.98
fold change (protein LMJF.36.4460 HY[…], CONSERVED, vehicle control = 1): 0.95
fold change (protein LMJF.36.5940 HY[…], CONSERVED, vehicle control = 1): 0.89
fold change (protein LMJF.36.6910 T-COMPLEX PROTEIN 1, THETA SUBUNIT, PUTATIVE,CHAPERONIN, PUTATIVE, vehicle control = 1): 1
fold change (vs vehicle control, protein CLM00008612.1 UNNAMED PROTEIN PRODUCT): 0.79
fold change (vs vehicle control, protein LINJ.20.0820 VESICLE-FUSING ATPASE, PUTATIVE,N-ETHYLMALEIMIDE-SENSITIVE FACTOR, PUTATIVE): 0.83
fold change (vs vehicle control, protein LINJ.36.1160 RIBOSOMAL PROTEIN L24, PUTATIVE): 0.99
fold change (vs vehicle control, protein LMJF.02.0370 […]-ATPASE SUBUNIT 6, PUTATIVE): 0.84
fold change (vs vehicle control, protein LMJF.05.0380 MICROTUBULE-ASSOCIATED PROTEIN, PUTATIVE): 0.72
fold change (vs vehicle control, protein LMJF.05.0780 HY[…], CONSERVED): 0.96
fold change (vs vehicle control, protein LMJF.06.0010 HISTONE H4): 0.93
fold change (vs vehicle control, protein LMJF.06.0370 GLUTAMINE SYNTHETASE, PUTATIVE): 0.9
fold change (vs vehicle control, protein LMJF.07.0460 ACYL-COA DEHYDROGENASE, MIT[…], PUTATIVE): 1.03
fold change (vs vehicle control, protein LMJF.08.1222 HY[…], CONSERVED): 0.75
fold change (vs vehicle control, protein LMJF.10.0510 GLYCEROL-3-PHOSPHATE DEH[…] ], GLYCOSOMAL): 0.75
fold change (vs vehicle control, protein LMJF.10.0910 SMALL GTP-BINDING PROTEIN RAB11, PUTATIVE): 0.93
fold change (vs vehicle control, protein LMJF.11.0130 NGG1 I[…] 3-LIKE PROTEIN): 0.95
fold change (vs vehicle control, protein LMJF.11.0480 HY[…], CONSERVED): 0.79
fold change (vs vehicle control, protein LMJF.11.1100 LANOSTEROL 14-ALPHA-DEMETHYLASE, PUTATIVE): 1.03
fold change (vs vehicle control, protein LMJF.11.1190 40S RIBOSOMAL PROTEIN S15A, PUTATIVE): 1.06
fold change (vs vehicle control, protein LMJF.13.1360 HY[…], CONSERVED): 0.58
fold change (vs vehicle control, protein LMJF.14.0130 INOSINE-GUANINE […], PUTATIVE): 0.94
fold change (vs vehicle control, protein LMJF.14.1320 SERINE HYDROXYMETHYLTRANFERASE (SHMT-S)): 1.04
fold change (vs vehicle control, protein LMJF.15.0190 HY[…], CONSERVED): 0.96
